Source: paper PMC7431843
These are yes or no findings as the source states them, for the method shown. Binding seen in cells or lysates may run through a third protein. For part of these data: Sequences can lack the tags named with a protein.

By UniProt entry, the sequences of proteins in these tests, tags left out. Residues count along the entry.
UniProt O94986: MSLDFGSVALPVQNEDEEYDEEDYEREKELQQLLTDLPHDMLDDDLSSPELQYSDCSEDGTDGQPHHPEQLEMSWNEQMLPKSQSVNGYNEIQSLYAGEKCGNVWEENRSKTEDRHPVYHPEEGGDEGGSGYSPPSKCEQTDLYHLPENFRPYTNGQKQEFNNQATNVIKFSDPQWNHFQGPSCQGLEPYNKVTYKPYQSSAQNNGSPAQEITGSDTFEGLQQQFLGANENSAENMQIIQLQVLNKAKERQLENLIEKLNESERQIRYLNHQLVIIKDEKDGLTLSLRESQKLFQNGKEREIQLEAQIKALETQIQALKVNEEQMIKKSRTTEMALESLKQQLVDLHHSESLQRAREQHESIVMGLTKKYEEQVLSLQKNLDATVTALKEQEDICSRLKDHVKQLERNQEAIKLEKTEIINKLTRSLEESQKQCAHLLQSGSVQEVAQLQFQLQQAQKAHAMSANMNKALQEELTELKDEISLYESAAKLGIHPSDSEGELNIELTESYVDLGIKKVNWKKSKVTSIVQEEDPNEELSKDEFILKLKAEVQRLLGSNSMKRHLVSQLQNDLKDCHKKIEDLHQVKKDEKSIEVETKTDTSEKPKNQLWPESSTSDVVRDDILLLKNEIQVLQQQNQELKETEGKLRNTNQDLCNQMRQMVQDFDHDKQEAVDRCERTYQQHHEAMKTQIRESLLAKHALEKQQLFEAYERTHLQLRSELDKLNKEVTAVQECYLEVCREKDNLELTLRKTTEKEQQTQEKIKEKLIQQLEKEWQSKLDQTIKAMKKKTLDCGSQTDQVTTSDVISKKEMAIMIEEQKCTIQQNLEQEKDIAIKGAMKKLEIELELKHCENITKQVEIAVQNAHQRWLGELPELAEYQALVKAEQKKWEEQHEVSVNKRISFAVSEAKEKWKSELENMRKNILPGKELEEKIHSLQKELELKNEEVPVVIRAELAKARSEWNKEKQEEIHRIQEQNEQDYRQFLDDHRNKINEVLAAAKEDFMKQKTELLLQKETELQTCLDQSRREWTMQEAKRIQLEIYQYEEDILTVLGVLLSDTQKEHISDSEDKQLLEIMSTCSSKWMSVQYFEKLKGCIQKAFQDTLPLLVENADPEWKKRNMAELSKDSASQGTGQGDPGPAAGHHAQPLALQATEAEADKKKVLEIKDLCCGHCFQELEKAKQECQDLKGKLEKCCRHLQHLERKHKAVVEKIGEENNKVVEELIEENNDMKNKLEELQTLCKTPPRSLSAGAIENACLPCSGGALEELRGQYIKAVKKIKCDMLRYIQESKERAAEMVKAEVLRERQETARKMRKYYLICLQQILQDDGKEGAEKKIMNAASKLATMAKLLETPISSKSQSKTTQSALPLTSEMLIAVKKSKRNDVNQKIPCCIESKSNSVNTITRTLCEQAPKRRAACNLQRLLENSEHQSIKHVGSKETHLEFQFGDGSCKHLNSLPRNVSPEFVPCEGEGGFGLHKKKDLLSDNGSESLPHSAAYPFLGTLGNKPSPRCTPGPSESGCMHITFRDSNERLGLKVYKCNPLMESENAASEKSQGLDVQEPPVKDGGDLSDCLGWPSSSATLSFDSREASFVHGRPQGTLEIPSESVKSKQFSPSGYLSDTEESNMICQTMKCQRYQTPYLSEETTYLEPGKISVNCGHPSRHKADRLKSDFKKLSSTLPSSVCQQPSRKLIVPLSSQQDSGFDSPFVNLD
UniProt Q8TEP8, residues 1-2436: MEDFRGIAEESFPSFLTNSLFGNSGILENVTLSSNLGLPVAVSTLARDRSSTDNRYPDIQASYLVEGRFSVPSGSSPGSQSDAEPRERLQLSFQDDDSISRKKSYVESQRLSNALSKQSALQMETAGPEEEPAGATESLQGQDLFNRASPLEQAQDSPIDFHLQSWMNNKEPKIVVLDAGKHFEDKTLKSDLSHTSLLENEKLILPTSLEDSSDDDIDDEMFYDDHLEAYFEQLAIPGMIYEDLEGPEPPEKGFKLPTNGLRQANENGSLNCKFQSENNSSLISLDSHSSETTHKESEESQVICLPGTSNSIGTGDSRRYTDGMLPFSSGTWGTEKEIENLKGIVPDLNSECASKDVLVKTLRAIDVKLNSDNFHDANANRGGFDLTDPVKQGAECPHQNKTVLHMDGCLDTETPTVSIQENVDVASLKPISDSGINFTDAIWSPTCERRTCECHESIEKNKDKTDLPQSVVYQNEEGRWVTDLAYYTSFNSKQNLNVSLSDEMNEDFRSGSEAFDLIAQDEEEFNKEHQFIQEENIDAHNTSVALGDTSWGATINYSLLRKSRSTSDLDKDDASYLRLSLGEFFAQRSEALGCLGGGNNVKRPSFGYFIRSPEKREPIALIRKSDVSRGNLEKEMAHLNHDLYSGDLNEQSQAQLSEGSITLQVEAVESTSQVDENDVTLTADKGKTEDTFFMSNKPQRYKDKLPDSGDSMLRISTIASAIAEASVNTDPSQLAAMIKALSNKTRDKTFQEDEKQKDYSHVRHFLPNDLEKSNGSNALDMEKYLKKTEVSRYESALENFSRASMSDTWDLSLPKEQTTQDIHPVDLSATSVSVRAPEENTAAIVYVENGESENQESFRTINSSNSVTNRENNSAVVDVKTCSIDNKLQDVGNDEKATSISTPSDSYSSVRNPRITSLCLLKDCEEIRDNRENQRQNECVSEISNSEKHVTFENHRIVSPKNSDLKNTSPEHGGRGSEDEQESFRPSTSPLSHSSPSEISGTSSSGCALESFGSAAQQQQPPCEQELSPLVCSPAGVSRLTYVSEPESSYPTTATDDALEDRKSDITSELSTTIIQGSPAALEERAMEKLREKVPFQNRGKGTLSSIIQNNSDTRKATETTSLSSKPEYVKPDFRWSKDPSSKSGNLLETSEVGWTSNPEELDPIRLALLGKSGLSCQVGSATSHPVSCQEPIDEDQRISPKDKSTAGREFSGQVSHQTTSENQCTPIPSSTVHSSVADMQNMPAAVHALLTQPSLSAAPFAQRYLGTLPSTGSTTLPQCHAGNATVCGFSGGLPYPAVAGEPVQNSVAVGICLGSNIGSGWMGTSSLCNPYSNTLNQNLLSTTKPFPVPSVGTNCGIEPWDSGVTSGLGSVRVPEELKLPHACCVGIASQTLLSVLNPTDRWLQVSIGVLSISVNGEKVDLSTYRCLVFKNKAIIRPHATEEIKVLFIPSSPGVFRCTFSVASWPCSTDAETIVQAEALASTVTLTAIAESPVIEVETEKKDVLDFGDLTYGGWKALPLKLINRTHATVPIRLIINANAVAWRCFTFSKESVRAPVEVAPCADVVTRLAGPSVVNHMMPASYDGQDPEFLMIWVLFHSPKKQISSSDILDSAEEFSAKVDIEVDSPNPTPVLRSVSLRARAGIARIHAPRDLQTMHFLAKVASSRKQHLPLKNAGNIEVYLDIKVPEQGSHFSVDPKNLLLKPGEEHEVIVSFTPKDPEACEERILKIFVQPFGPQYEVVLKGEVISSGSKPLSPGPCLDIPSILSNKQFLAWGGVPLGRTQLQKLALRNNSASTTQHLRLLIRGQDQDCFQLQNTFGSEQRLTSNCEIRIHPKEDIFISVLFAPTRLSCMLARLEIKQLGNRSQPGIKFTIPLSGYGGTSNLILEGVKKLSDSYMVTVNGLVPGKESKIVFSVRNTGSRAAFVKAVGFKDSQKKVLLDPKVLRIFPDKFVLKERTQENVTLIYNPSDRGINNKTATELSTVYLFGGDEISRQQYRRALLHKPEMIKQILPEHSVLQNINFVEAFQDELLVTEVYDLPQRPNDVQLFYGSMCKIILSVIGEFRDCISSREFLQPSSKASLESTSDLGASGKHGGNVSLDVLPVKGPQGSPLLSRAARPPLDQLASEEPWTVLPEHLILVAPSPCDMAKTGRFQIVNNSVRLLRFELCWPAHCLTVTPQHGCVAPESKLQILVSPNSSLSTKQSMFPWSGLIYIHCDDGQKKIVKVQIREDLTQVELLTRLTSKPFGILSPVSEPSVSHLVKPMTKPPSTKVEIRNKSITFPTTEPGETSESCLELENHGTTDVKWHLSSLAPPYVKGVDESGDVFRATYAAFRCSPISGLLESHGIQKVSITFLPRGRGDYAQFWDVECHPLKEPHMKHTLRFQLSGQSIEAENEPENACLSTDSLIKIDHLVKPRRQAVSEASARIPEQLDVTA

Columns and labels:
Experiment in all cases: co-IP; reciprocal co-immunoprecipitation after coexpression in HEK293T cells (24 h); TNTE lysis buffer (Tris-HCl pH 7.5, 120 mM NaCl, 1% Triton X-100, 1 mM EDTA); anti-FLAG M2 affinity gel, or rabbit polyclonal mCherry, RFP or GFP antibodies with Protein G Sepharose; beads washed 6x with lysis buffer supplemented with 500 mM NaCl; immunoblot
[1] = biological target: BirA*-Flag-CEP152 (UniProt O94986)
[2] = biological target: Flag-CEP192 (1–2436) (UniProt Q8TEP8)
[3] = biological target: T1, Flag-CEP135 (UniProt Q66GS9)
T1 sequence: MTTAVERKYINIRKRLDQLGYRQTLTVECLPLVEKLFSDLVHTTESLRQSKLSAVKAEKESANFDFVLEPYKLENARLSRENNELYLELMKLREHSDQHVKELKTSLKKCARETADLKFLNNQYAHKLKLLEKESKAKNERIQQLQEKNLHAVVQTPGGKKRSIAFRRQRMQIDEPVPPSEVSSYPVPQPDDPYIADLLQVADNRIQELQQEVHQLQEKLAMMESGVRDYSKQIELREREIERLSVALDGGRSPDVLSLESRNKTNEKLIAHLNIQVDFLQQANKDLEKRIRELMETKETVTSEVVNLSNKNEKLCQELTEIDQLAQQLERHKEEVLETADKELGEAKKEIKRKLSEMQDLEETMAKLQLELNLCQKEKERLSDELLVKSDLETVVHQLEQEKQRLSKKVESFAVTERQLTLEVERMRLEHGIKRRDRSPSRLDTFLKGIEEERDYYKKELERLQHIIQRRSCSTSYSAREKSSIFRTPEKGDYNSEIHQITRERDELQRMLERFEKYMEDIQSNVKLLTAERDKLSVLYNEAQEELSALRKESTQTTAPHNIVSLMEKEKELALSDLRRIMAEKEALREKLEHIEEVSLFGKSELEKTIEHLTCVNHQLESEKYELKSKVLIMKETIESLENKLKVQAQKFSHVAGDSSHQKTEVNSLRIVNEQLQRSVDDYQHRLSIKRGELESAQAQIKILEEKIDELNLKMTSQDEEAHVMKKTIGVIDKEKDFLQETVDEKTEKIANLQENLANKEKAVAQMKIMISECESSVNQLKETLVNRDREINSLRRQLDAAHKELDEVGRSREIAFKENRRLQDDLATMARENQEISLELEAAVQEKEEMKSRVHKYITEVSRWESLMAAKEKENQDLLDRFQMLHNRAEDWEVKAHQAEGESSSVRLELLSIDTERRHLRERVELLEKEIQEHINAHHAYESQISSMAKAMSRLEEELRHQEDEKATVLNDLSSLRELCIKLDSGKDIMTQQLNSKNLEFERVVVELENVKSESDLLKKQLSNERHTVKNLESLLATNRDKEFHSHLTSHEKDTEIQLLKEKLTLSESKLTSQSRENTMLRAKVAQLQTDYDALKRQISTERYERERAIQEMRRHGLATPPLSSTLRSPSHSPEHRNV

Measured: binding

B1: RFP-FAM46C (protein, UniProt Q5VWP2 1-391)
chain: MAEESSCTRDCMSFSVLNWDQVSRLHEVLTEVVPIHGRGNFPTLEITLKDIVQTVRSRLEEAGIKVHDVRLNGSAAGHVLVKDNGLGCKDLDLIFHVALPTEAEFQLVRDVVLCSLLNFLPEGVNKLKISPVTLKEAYVQKLVKVCTDTDRWSLISLSNKNGKNVELKFVDSIRRQFEFSVDSFQIILDSLLFFYDCSNNPISEHFHPTVIGESMYGDFEEAFDHLQNRLIATKNPEEIRGGGLLKYSNLLVRDFRPTDQEEIKTLERYMCSRFFIDFPDILEQQRKLETYLQNHFAEEERSKYDYLMILRRVVNESTVCLMGHERRQTLNLISLLALRVLAEQNIIPSATNVTCYYQPAPYVSDGNFSNYYVAHPPVTYSQPYPTWLPCN
no binding: all assays above
